Measurements reported in PubChem BioAssay AID504764 (Drosophila RNAi Screening Center, 2011).

Purpose: 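Genes whose knock-down alters Notch-dependent transcription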 (primary screen)
Cell system: Drosophila Kc167 cells
Reagent: long dsRNA against Drosophila genes
Timing: about 5 days (4 days dsRNA, then 24 h after transfection)
Conditions: transfection of constitutively active membrane-tethered Notch lacking the extracellular domain, read 24 h later
Measured: 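Light from a Notch-responsive E(spl)m3 luciferase reporter under active Notch, with control-promoter and no-Notch reporter wells to normalise; raw counts from paired wells a and b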
Direction: induced reporter light, run 1, well a and induced reporter light, run 1, well b: higher = more light from the Notch target reporter with active Notch; control promoter light, run 1, well a and control promoter light, run 1, well b: higher = more light from the viral control promoter (cell number, transfection, viability); uninduced reporter light, run 1, well a: higher = more light from the Notch target reporter without active Notch
Rule for the call: 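Hit if the duplicate-averaged log2 ratio of induced to control-promoter light gives a plate-wise z beyond ±2, or induced to uninduced beyond ±1.8; weak-control or discordant-duplicate wells dropped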
Meaning of the calls: active = modifier hit (raised or lowered Notch signal); inactive = not a hit
The screen tested about 22,000 reagents; below is a random part of those that have a named target and a result. Of all reagents, 403 (1.9%) are marked active. 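Unnormalised raw counts per well; ratio z-scores behind the hit calls and whether each hit raises or lowers signal are not deposited.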 Entries without a mark were called inactive. Not stated in the record: the amount of reagent.

The first 2 entries, to show the layout:
{"target gene": "CenB1A (Centaurin beta 1A)", "dsRNA": "DRSC16923", "induced reporter light, run 1, well a": 2.03e5, "induced reporter light, run 1, well b": 1.86e5, "control promoter light, run 1, well a": 2.26e5, "control promoter light, run 1, well b": 2.32e5, "uninduced reporter light, run 1, well a": 16310}
{"target gene": "CG13724", "dsRNA": "DRSC10053", "induced reporter light, run 1, well a": 3.01e5, "induced reporter light, run 1, well b": 2.36e5, "control promoter light, run 1, well a": 3.88e5, "control promoter light, run 1, well b": 3.42e5, "uninduced reporter light, run 1, well a": 12625}

The list itself, from the first entry:
{"target gene": "CenB1A (Centaurin beta 1A)", "dsRNA": "DRSC16923", "induced reporter light, run 1, well a": 2.03e5, "induced reporter light, run 1, well b": 1.86e5, "control promoter light, run 1, well a": 2.26e5, "control promoter light, run 1, well b": 2.32e5, "uninduced reporter light, run 1, well a": 16310}
{"target gene": "CG13724", "dsRNA": "DRSC10053", "induced reporter light, run 1, well a": 3.01e5, "induced reporter light, run 1, well b": 2.36e5, "control promoter light, run 1, well a": 3.88e5, "control promoter light, run 1, well b": 3.42e5, "uninduced reporter light, run 1, well a": 12625}
{"target gene": "Sfmbt (Scm-related gene containing four mbt domains)", "dsRNA": "DRSC02552", "induced reporter light, run 1, well a": 2.26e5, "induced reporter light, run 1, well b": 2.24e5, "control promoter light, run 1, well a": 1.63e5, "control promoter light, run 1, well b": 2.02e5, "uninduced reporter light, run 1, well a": 15175}
{"target gene": "hts (hu li tai shao)", "dsRNA": "DRSC07629", "induced reporter light, run 1, well a": 1.21e5, "induced reporter light, run 1, well b": 76260, "control promoter light, run 1, well a": 1.14e5, "control promoter light, run 1, well b": 75400, "uninduced reporter light, run 1, well a": 8840}
{"target gene": "Non2 (Novel nucleolar protein 2)", "dsRNA": "DRSC08272", "induced reporter light, run 1, well a": 80765, "induced reporter light, run 1, well b": 91185, "control promoter light, run 1, well a": 1.44e5, "control promoter light, run 1, well b": 2.06e5, "uninduced reporter light, run 1, well a": 7510}
{"target gene": "CG17744", "dsRNA": "DRSC10286", "induced reporter light, run 1, well a": 3.07e5, "induced reporter light, run 1, well b": 2.10e5, "control promoter light, run 1, well a": 2.89e5, "control promoter light, run 1, well b": 3.18e5, "uninduced reporter light, run 1, well a": 12475}
{"target gene": "lin (lines)", "dsRNA": "DRSC07644", "induced reporter light, run 1, well a": 1.81e5, "induced reporter light, run 1, well b": 2.36e5, "control promoter light, run 1, well a": 2.45e5, "control promoter light, run 1, well b": 2.50e5, "uninduced reporter light, run 1, well a": 17882}
{"target gene": "GlcAT-S (Glucuronyltransferase S)", "dsRNA": "DRSC02731", "induced reporter light, run 1, well a": 2.55e5, "induced reporter light, run 1, well b": 2.54e5, "control promoter light, run 1, well a": 2.55e5, "control promoter light, run 1, well b": 2.73e5, "uninduced reporter light, run 1, well a": 17855}
{"target gene": "CG2794", "dsRNA": "DRSC00534", "induced reporter light, run 1, well a": 1.11e5, "induced reporter light, run 1, well b": 1.02e5, "control promoter light, run 1, well a": 94810, "control promoter light, run 1, well b": 79340, "uninduced reporter light, run 1, well a": 10505}
{"target gene": "Toll-7", "dsRNA": "DRSC07563", "induced reporter light, run 1, well a": 21750, "induced reporter light, run 1, well b": 23245, "control promoter light, run 1, well a": 28475, "control promoter light, run 1, well b": 23590, "uninduced reporter light, run 1, well a": 4485}
{"target gene": "Lcp65Ad", "dsRNA": "DRSC11211", "induced reporter light, run 1, well a": 2.08e5, "induced reporter light, run 1, well b": 1.95e5, "control promoter light, run 1, well a": 1.69e5, "control promoter light, run 1, well b": 2.18e5, "uninduced reporter light, run 1, well a": 13655}
{"target gene": "Oseg4 (Outer segment 4)", "dsRNA": "DRSC08548", "induced reporter light, run 1, well a": 1.16e5, "induced reporter light, run 1, well b": 1.35e5, "control promoter light, run 1, well a": 2.86e5, "control promoter light, run 1, well b": 2.59e5, "uninduced reporter light, run 1, well a": 10560}
{"target gene": "Oatp58Db (Organic anion transporting polypeptide 58Db)", "dsRNA": "DRSC04364", "induced reporter light, run 1, well a": 49290, "induced reporter light, run 1, well b": 35200, "control promoter light, run 1, well a": 50465, "control promoter light, run 1, well b": 67310, "uninduced reporter light, run 1, well a": 2115}
{"target gene": "Amy-p (Amylase proximal)", "dsRNA": "DRSC06786", "induced reporter light, run 1, well a": 95920, "induced reporter light, run 1, well b": 1.01e5, "control promoter light, run 1, well a": 1.08e5, "control promoter light, run 1, well b": 1.50e5, "uninduced reporter light, run 1, well a": 9225}
{"target gene": "CASK", "dsRNA": "DRSC14588", "induced reporter light, run 1, well a": 1.75e5, "induced reporter light, run 1, well b": 1.58e5, "control promoter light, run 1, well a": 1.68e5, "control promoter light, run 1, well b": 1.52e5, "uninduced reporter light, run 1, well a": 11215}
{"target gene": "CASK", "dsRNA": "DRSC16597", "induced reporter light, run 1, well a": 1.88e5, "induced reporter light, run 1, well b": 1.84e5, "control promoter light, run 1, well a": 2.24e5, "control promoter light, run 1, well b": 2.02e5, "uninduced reporter light, run 1, well a": 15435}
{"target gene": "CASK", "dsRNA": "DRSC16598", "induced reporter light, run 1, well a": 1.48e5, "induced reporter light, run 1, well b": 1.32e5, "control promoter light, run 1, well a": 1.72e5, "control promoter light, run 1, well b": 1.63e5, "uninduced reporter light, run 1, well a": 10560}
{"target gene": "cic (capicua)", "dsRNA": "DRSC14276", "induced reporter light, run 1, well a": 14000, "induced reporter light, run 1, well b": 17342, "control promoter light, run 1, well a": 14770, "control promoter light, run 1, well b": 14440, "uninduced reporter light, run 1, well a": 3600}
{"target gene": "cic (capicua)", "dsRNA": "DRSC15708", "induced reporter light, run 1, well a": 16155, "induced reporter light, run 1, well b": 12915, "control promoter light, run 1, well a": 14910, "control promoter light, run 1, well b": 15655, "uninduced reporter light, run 1, well a": 4005}
{"target gene": "cic (capicua)", "dsRNA": "DRSC16918", "induced reporter light, run 1, well a": 1.46e5, "induced reporter light, run 1, well b": 1.28e5, "control promoter light, run 1, well a": 1.44e5, "control promoter light, run 1, well b": 1.52e5, "uninduced reporter light, run 1, well a": 12005}
{"target gene": "cic (capicua)", "dsRNA": "DRSC21243", "induced reporter light, run 1, well a": 83495, "induced reporter light, run 1, well b": 79020, "control promoter light, run 1, well a": 77860, "control promoter light, run 1, well b": 97790, "uninduced reporter light, run 1, well a": 6790}
{"target gene": "CG18428", "dsRNA": "DRSC15326", "induced reporter light, run 1, well a": 2.03e5, "induced reporter light, run 1, well b": 1.92e5, "control promoter light, run 1, well a": 2.17e5, "control promoter light, run 1, well b": 2.03e5, "uninduced reporter light, run 1, well a": 13770}
{"target gene": "CG11475", "dsRNA": "DRSC04113", "induced reporter light, run 1, well a": 2.23e5, "induced reporter light, run 1, well b": 2.05e5, "control promoter light, run 1, well a": 1.52e5, "control promoter light, run 1, well b": 2.05e5, "uninduced reporter light, run 1, well a": 18192}
{"target gene": "mRpL33 (mitochondrial ribosomal protein L33)", "dsRNA": "DRSC18319", "induced reporter light, run 1, well a": 1.16e5, "induced reporter light, run 1, well b": 1.47e5, "control promoter light, run 1, well a": 2.19e5, "control promoter light, run 1, well b": 2.17e5, "uninduced reporter light, run 1, well a": 10105}
